Results of single-concentration screens

Amino acid sequences for entries named in this document (tags omitted). Residues count along the entry.
UniProt A4I591, 1-473: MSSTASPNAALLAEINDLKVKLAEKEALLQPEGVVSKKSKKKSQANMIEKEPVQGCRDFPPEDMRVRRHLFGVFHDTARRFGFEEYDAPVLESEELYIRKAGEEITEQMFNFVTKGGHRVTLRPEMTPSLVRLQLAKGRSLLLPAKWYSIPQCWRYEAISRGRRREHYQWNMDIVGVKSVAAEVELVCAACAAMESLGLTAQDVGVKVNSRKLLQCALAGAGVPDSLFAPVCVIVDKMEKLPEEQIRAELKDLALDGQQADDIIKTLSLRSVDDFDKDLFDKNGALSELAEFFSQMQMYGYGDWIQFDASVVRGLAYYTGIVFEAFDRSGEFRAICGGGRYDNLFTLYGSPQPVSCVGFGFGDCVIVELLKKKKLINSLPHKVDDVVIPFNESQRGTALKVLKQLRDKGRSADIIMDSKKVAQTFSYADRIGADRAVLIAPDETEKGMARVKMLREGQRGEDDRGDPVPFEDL

Measurements from “University of Dundee, Small-Polar-MMV Screening Library” (2021), ChEMBL document CHEMBL3988442.

The filed quantity is “Percent Effect” (%). The record does not define 0% and 100%; most values in the screen are far below 50% and negative numbers occur (in some assays of this library far below -100). The compounds are a random part of those screened.

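Histidine-tRNA ligase, Leishmania infantum (UniProt A4I591). Enzyme assay of histidyl-tRNA synthetase; the read-out is not stated. Concentration: 30 µM. Higher reads as stronger inhibition (inferred: compounds with an IC50 in retests scored well above the rest). The assay is labelled LdHisRS but filed under L. infantum. Of about 69,000 compounds tested this way, about 410 (0.6%) reached 50% or more in at least one test.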

SMILES | effect
Cc1cnn(CC2CCCCN2CCCS(C)(=O)=O)c1 (configuration not stated) | 12.07%
NC(=O)CCCNC(=O)c1cc(Br)c2c(c1)OCCO2 | 12.9%
Cn1cncc1CN1C[C@@H]2OCCN(c3ncccn3)[C@@H]2C1 | 14.71%
CNC(=O)c1cccnc1N1CCC(Oc2ccc(F)cc2)CC1 | 7.317%
CCc1cnc(N2CC3(CCN(C(=O)c4ccoc4)C3)C2)nc1 | 8.491%
CC(=O)NC1CCN(c2ccnc(C3CCNCC3)c2)CC1 | 12.77%
Cc1nnc(NC(=O)NCc2ccc(OC(C)C)nc2)s1 | 11.54%
CC(C)c1ccc(C#N)c(N2CC(C)(C)[C@@](C)(O)C2)n1 | 5.208%
O=C(c1ccsc1)N1CCCC(c2cc(C(F)(F)F)[nH]n2)C1 (configuration not stated) | -19.7%
CC(=O)N1CCC(C(=O)N2CCC2c2nc(-c3ccc(C)s3)no2)CC1 (configuration not stated) | -5.594%
CCn1cnnc1CNC(=O)c1cc(Cl)ccc1I | 13.04%
CCOC(=O)N1CCN(C(=O)c2cc(-c3ccc(C)cc3)on2)CC1 | 15.93%
Nc1cc2c(nn1)CCN(C(=O)c1cccnc1Oc1ccccc1)C2 | 18.42%
COc1ccc(CNc2c(N3CCN(C(C)=O)CC3)c(=O)c2=O)cc1 | 18.68%
COCCN(C)C(C(=O)O)c1ccc(F)c(C)c1 (configuration not stated) | 0%
CCC(C(=O)NCCc1nc(C)cc(C(F)(F)F)n1)n1cccn1 (configuration not stated) | 27.06%
CCOc1ccc(CN2C(=O)CC(CC)(CC)C2=O)nc1 | 10.34%
CN(CCOc1cccc(CNC(=O)C2CC2)c1)C1CCOCC1 | 11.54%
O=C(CC1CC1)N1CCC2(CC1)C(=O)NCCN2Cc1ccccc1 | 9.709%
Cc1cc(CSc2nc(=O)ccn2C(C)C)no1 | -4.301%
COCCCNC(=O)Nc1cc(-c2ccccc2C)nn1CCO | 14.4%
CCn1c(C2CCN(C(=O)c3ccc4cc[nH]c4c3)CC2)n[nH]c1=O | 4.444%
COc1ccc(C(=O)N2CCC(Nc3ccc(C)nn3)CC2)cc1 | 6.087%
CCS(=O)(=O)N1Cc2c(Cn3ccnc3)nn(C)c2C1 | 11.11%
CC(=O)N1CCC2(CC1)CN(CC1CC1)c1ccc(F)cc12 | 25.74%
Cn1nc(CNC(=O)c2ccc3c(c2)OCO3)c2c1CCOC2 | 2.74%
Cc1noc(C)c1CNC(=O)C1(NS(C)(=O)=O)CCCCC1 | 8.73%
CN(C)c1cncc(C2CCN(CCO)CC2)n1 | 19.44%
CSCCc1n[nH]c2c1CN(S(=O)(=O)c1c(C)nn(C)c1C)CC2 | -5.714%
CN(CCC(=O)N1CCc2sccc2C1)Cc1ccc2c(c1)OCCO2 | 14.29%
CCN(CCn1c(=O)oc2ccccc21)CC1CCOCC1 | 15.71%
CCOc1ccc2[nH]c(=O)c(CN3CCC(N4CCCC4)CC3)cc2c1 | 20%
COc1ccc(-c2cc(CC3(NCc4ccc(C)o4)COC3)no2)cc1 | 17.57%
Cc1nccn1CCN(C)c1nc(-c2cccnc2)nc2c1CCNC2 | 20.8%
Cc1ccnc(N2CCC(NCCOc3ccccc3)CC2)n1 | 18.31%
Cc1ccc(=O)n(CC2(O)CCN(Cc3ccoc3)CC2)n1 | 11.46%
CC(NC(=O)CSCC#N)c1ccccc1 (configuration not stated) | 31.82%
COCCOc1cc(C)ccc1NC(=O)N(C)Cc1cnn(C)c1 | 4.386%
COc1ccccc1C(C)NC(=O)N1CCN(Cc2ccc(Br)s2)CC1 (configuration not stated) | 23.94%
Cn1cnc(-c2nc(C(=O)NCCN3CCCC3)c3ccccn23)c1 | 16%
CCOC1COC2(CCN(CC3CCOCC3)CC2)C1 (configuration not stated) | -19.8%
CC1=Nc2c(c(=O)[nH]n2C(C)C)C(c2cccs2)S1 (configuration not stated) | 25.24%
Cc1ccc(CC(=O)N2CCOC(c3nc(C(C)(C)C)n[nH]3)C2)cn1 (configuration not stated) | 20.19%
CC(N1CCN(C(=O)NCc2cccc(C#N)c2)CC1)C(F)(F)F (configuration not stated) | 9.677%
Cc1cnc(N2CCN3C[C@H](OCc4cccc(C)n4)C[C@H]3C2)nc1 | 24.14%
CC1N(C)C(=O)COC12CCN(Cc1ccsc1)CC2 (configuration not stated) | 3.448%
CN(C)CCN1C(=O)C[C@@H]2[C@@H]1CCN2S(=O)(=O)c1ccccc1 | 13.59%
O=C(c1ccco1)N1Cc2nccn2CC(Cn2ncccc2=O)C1 (configuration not stated) | 6.944%
Cc1ccc2[nH]c(CN(C)c3cc(CCN)nc(C)n3)nc2c1 | 43.84%
NC(=O)C(NCc1nn(-c2ccccc2)c2c1CCC2)c1ccccc1 (configuration not stated) | 27.52%
CC(=O)Nc1nc(C(=O)N2CCCC2c2ccc(Br)cc2)cs1 (configuration not stated) | 10.71%
Cc1noc(C)c1CNC(=O)Nc1ccc(N2CCOC(C)C2)cc1 (configuration not stated) | 4.762%
CN1CCO[C@@H]2CN(S(=O)(=O)c3ccccc3)CC[C@@H]2C1 | 14.53%
CCc1noc(CN(C)Cc2cc3ccc(Cl)cc3[nH]c2=O)n1 | 8.197%
CCNc1nc2c(s1)C(=O)CN(C(=O)NCCc1ccccc1)C2 | 4.054%
O=C1COc2ccc(Cl)cc2CN1CC1CC1 | 23.38%
CCn1cc(CN2CCN(CC(O)c3ccc(C)cc3C)CC2)c(C)n1 (configuration not stated) | 10.34%
COc1ccc(C(=O)Nc2cnn(CCN3CCOCC3)c2)c(O)c1 | 10.71%
CC(C)CC(=O)NCCCn1cncn1 | -2.703%
O=C(c1ccc(=O)[nH]c1)N1CCCC2(C=Cc3ccccc3O2)CC1 (configuration not stated) | 18.75%
Cc1nn(C)cc1-c1cc(C(=O)N2CCc3ncc(Cl)cc3C2)no1 | 10.14%
CC(NC(=O)NCC1(c2ccc(F)cc2)CCC1)c1nncn1C (configuration not stated) | 19.7%
CCc1ccc(CN2C[C@@H](C(=O)O)[C@H](c3ccccc3OC)C2)o1 | 15.15%
CNC(=O)c1cccnc1NCc1ccc(Cn2cccn2)cc1 | 11.76%
Cc1c(C(C)N)cnn1-c1cccc2ccccc12 (configuration not stated) | 26.58%
CN(Cc1ccccn1)C(=O)c1cc(CN2CCC(O)CC2)on1 | 2.151%
Cc1cccc(OC(C)C(=O)NCC2(N(C)C)CCCC2)c1 (configuration not stated) | 16%
Cc1cc(C)c2c(NCC3(O)CCCCC3)ncnc2n1 | 9.836%
COCCCn1cnnc1CNc1cc(C)nc2ccnn12 | 7.143%
CCN1C[C@H]2N(c3ncccn3)CCC[C@@]2(C(=O)NCC2CC2)C1 | 11.82%
Cc1nc(C)c(CCNC(Cc2ccncc2)C(F)(F)F)s1 (configuration not stated) | 14.29%
CN(Cc1cncnc1)[C@H]1CN(C(=O)c2ccco2)[C@@H]2CCCO[C@@H]21 | -0.9091%
O=C(NCC1CCOC1)Nc1ccc(Oc2ccc(F)cc2)nc1 (configuration not stated) | 4.63%
COc1ccc(F)cc1C(C)NC(=O)c1nnc(C)s1 (configuration not stated) | -1.887%
O=C(NCc1ccccn1)c1cc2n(n1)CCNC2 | 13.25%
O=C(O)C1CCN(C(=O)Cn2ccc3c(Cl)cccc32)CC1 | 25.97%
CC1CCc2n[nH]c(C(=O)NCCCc3ccco3)c2C1 (configuration not stated) | 3.448%
O=S1(=O)c2ccccc2C2(CCN(Cc3ccccc3)C2)N1CC1CC1 (configuration not stated) | 9.489%
COc1cc(C(=O)N(Cc2cnn(C)c2)C(C)C)ccc1C | 15.18%
Cc1nc2c(NC(CC(C)(C)C)c3cccnc3)ncnc2o1 (configuration not stated) | 2.5%
CCc1ccc(C(=O)O)cc1S(=O)(=O)Nc1ccc2c(c1)OCCO2 | 8.333%
CC(C(=O)N1CCN(c2ccccc2)CC1)n1cc(Br)cn1 (configuration not stated) | 10.34%
CC(C)N1[C@H](Cn2cccn2)C[C@@H]2CN(Cc3ccoc3)CC[C@@H]21 | 1.709%
Cc1ncc2c(n1)CN(c1ncnc3[nH]ccc13)CC2 | 11.9%

The first 9 entries again:

SMILES	effect
Cc1cnn(CC2CCCCN2CCCS(C)(=O)=O)c1 (configuration not stated)	12.07%
NC(=O)CCCNC(=O)c1cc(Br)c2c(c1)OCCO2	12.9%
Cn1cncc1CN1C[C@@H]2OCCN(c3ncccn3)[C@@H]2C1	14.71%
CNC(=O)c1cccnc1N1CCC(Oc2ccc(F)cc2)CC1	7.317%
CCc1cnc(N2CC3(CCN(C(=O)c4ccoc4)C3)C2)nc1	8.491%
CC(=O)NC1CCN(c2ccnc(C3CCNCC3)c2)CC1	12.77%
Cc1nnc(NC(=O)NCc2ccc(OC(C)C)nc2)s1	11.54%
CC(C)c1ccc(C#N)c(N2CC(C)(C)[C@@](C)(O)C2)n1	5.208%
O=C(c1ccsc1)N1CCCC(c2cc(C(F)(F)F)[nH]n2)C1 (configuration not stated)	-19.7%